Results are given in words; binding and its absence hold for the method and conditions named. Binding seen in cells or lysates may run through a third protein. Some entries that bind do so weakly or less than the wild type. For some assays here: Sequences can lack the tags named with a protein.
What was measured:
Experiment in all cases: co-IP
[1] = biological target: T1, endogenous Msr1 (mouse, bone marrow-derived macrophages) (mouse (endogenous in BMDMs)) (UniProt P30204)
T1 sequence: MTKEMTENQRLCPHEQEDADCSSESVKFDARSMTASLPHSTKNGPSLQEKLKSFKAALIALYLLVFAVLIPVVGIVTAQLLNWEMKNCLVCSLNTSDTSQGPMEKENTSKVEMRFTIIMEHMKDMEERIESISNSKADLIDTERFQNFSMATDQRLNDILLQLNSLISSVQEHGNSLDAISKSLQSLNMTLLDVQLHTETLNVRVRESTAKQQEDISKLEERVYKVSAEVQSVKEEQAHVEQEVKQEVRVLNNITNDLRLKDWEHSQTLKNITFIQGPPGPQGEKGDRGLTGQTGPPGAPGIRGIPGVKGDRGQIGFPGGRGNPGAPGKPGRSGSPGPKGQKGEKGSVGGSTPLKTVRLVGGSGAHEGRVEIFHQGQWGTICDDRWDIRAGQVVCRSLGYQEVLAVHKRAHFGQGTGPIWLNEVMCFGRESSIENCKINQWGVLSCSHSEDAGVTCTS

The chains behind the UniProt entries cited, without tags or fusion partners.
UniProt Q9CQY1, whole entry: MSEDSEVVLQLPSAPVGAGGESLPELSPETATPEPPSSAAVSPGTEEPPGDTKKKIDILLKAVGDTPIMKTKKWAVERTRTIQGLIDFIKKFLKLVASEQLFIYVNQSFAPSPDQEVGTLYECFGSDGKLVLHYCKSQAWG
UniProt Q99J83, whole entry: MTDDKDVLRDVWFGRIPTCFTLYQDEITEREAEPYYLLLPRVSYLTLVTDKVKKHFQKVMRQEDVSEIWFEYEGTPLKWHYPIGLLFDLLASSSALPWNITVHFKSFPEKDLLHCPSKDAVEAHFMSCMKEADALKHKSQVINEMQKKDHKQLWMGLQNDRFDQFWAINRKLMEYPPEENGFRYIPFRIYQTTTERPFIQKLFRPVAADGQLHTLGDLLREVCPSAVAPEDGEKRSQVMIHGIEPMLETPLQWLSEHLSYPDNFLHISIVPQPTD
UniProt O94817, whole entry: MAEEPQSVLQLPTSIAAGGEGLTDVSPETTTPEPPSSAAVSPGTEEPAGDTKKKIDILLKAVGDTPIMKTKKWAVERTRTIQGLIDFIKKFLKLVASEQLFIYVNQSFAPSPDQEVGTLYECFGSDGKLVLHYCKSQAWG

[2] = biological target: FLAG-MSR1 (human) aa1-50, cytoplasmic N-tail (human) (UniProt P21757)
[3] = biological target: FLAG-MSR1 (human) aa51-end, extracellular C-terminal part with a transmembrane domain (human) (UniProt P21757)
[4] = biological target: T2, FLAG-MSR1 (human), full-length (human) (UniProt P21757)
T2 sequence: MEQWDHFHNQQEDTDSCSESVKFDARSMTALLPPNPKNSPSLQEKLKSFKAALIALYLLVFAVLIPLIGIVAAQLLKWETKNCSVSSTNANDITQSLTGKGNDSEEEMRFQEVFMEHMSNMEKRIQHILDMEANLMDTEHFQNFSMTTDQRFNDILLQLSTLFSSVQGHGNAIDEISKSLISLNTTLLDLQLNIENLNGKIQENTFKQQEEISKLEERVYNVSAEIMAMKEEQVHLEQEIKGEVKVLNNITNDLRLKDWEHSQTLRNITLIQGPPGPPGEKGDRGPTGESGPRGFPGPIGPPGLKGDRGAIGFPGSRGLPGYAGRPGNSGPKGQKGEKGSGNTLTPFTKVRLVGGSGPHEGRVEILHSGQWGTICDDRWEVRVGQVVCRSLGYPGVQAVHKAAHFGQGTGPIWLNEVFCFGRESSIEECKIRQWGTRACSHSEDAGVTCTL

[5] = biological target: T3, FLAG-Msr1 (mouse) (mouse) (UniProt P30204)
T3 sequence: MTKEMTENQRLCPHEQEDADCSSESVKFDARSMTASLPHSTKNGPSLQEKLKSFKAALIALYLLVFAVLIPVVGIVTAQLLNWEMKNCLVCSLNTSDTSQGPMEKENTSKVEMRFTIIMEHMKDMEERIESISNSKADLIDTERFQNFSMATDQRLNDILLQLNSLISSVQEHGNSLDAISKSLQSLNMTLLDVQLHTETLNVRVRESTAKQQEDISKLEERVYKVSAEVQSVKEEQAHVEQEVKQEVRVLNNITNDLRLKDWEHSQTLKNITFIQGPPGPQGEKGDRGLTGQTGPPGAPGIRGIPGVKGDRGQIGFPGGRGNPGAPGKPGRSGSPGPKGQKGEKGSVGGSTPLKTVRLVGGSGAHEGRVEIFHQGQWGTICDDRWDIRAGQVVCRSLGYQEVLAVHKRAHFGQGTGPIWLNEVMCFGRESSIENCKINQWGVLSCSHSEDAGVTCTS

[6] = biological target: FLAG-Atg12 (mouse) (mouse) (UniProt Q9CQY1)
[7] = biological target: FLAG-Atg5 (mouse) (mouse) (UniProt Q99J83)

With “endogenous mouse Atg12 (of the Atg5-Atg12 complex) (from UniProt Q9CQY1 1-141)” the binding [1] was “binds”.

With “endogenous human ATG12 (of the ATG5-ATG12 complex) (from UniProt O94817 1-140)” the binding [2] was “binds”, the binding [3] was “no binding” and the binding [4] was “binds”. The binding [5] was “binds”.

In the case of “endogenous mouse Atg5 (of the Atg5-Atg12 complex) (from UniProt Q99J83 1-275)”, the binding [1] is reported as “binds”.

B1: Myc-Msr1 (mouse) (receptor, UniProt P30204 1-458)
chain: MTKEMTENQRLCPHEQEDADCSSESVKFDARSMTASLPHSTKNGPSLQEKLKSFKAALIALYLLVFAVLIPVVGIVTAQLLNWEMKNCLVCSLNTSDTSQGPMEKENTSKVEMRFTIIMEHMKDMEERIESISNSKADLIDTERFQNFSMATDQRLNDILLQLNSLISSVQEHGNSLDAISKSLQSLNMTLLDVQLHTETLNVRVRESTAKQQEDISKLEERVYKVSAEVQSVKEEQAHVEQEVKQEVRVLNNITNDLRLKDWEHSQTLKNITFIQGPPGPQGEKGDRGLTGQTGPPGAPGIRGIPGVKGDRGQIGFPGGRGNPGAPGKPGRSGSPGPKGQKGEKGSVGGSTPLKTVRLVGGSGAHEGRVEIFHQGQWGTICDDRWDIRAGQVVCRSLGYQEVLAVHKRAHFGQGTGPIWLNEVMCFGRESSIENCKINQWGVLSCSHSEDAGVTCTS
For B1, the binding [6] was “binds” and the binding [7] was “binds”.

From paper doi:10.1101/2020.02.28.969832
